Laboratory results published in patent US20040052845A1, “Hydrogel-driven drug dosage form” (priority 2003, published 2004).
Values after ≈ are worked out from the molar mass of the structure shown.

Conditions: pH 6.5

For `COC(=O)C1=C(C)NC(C)=C(C(=O)OC)C1c1ccccc1[N+](=O)[O-]` [Drug 4, nifedipine], the solubility was 0.026 mg/mL (≈ 75.1 µM).
